Assay: RRT study: LC-MS/MS urinary proteomics, AKI after cardiac surgery, RRT vs No RRT
Parameters: species or system human
Settings: patients who did vs did not require RRT/dialysis
[1] = direction of differential abundance

Molecule | Up or Down [1] | Mean Fold Change | Up or Down (direction of urinary abundance)
Mannan-binding lectin serine protease 2 (protein, UniProt O00187 16-686, looked up) Mannan-binding lectin serine …: TPLGPKWPEPVFGRLASPGFPGEYANDQERRWTLTAPPGYRLRLYFTHFDLELSHLCEYDFVKLSSGAKVLATLCGQESTDTERAPGKDTFYSLGSSLDITFRSDYSNEKPFTGFEAFYAAEDIDECQVAPGEAPTCDHHCHNHLGGFYCSCRAGYVLHRNKRTCSALCSGQVFTQRSGELSSPEYPRPYPKLSSCTYSISLEEGFSVILDFVESFDVETHPETLCPYDFLKIQTDREEHGPFCGKTLPHRIETKSNTVTITFVTDESGDHTGWKIHYTSTAQPCPYPMAPPNGHVSPVQAKYILKDSFSIFCETGYELLQGHLPLKSFTAVCQKDGSWDRPMPACSIVDCGPPDDLPSGRVEYITGPGVTTYKAVIQYSCEETFYTMKVNDGKYVCEADGFWTSSKGEKSLPVCEPVCGLSARTTGGRIYGGQKAKPGDFPWQVLILGGTTAAGALLYDNWVLTAAHAVYEQKHDASALDIRMGTLKRLSPHYTQAWSEAVFIHEGYTHDAGFDNDIALIKLNNKVVINSNITPICLPRKEAESFMRTDDIGTASGWGLTQRGFLARNLMYVDIPIVDHQKCTAAYEKPPYPRGSVTANMLCAGLESGGKDSCRGDSGGALVFLDSETERWFVGGIVSWGSMNCGEAGQYGVYTKVINYIPWIENIISDF | Down | 1.112 | –
Aminopeptidase N (protein, UniProt P15144 2-967, looked up) Aminopeptidase N: AKGFYISKSLGILGILLGVAAVCTIIALSVVYSQEKNKNANSSPVASTTPSASATTNPASATTLDQSKAWNRYRLPNTLKPDSYRVTLRPYLTPNDRGLYVFKGSSTVRFTCKEATDVIIIHSKKLNYTLSQGHRVVLRGVGGSQPPDIDKTELVEPTEYLVVHLKGSLVKDSQYEMDSEFEGELADDLAGFYRSEYMEGNVRKVVATTQMQAADARKSFPCFDEPAMKAEFNITLIHPKDLTALSNMLPKGPSTPLPEDPNWNVTEFHTTPKMSTYLLAFIVSEFDYVEKQASNGVLIRIWARPSAIAAGHGDYALNVTGPILNFFAGHYDTPYPLPKSDQIGLPDFNAGAMENWGLVTYRENSLLFDPLSSSSSNKERVVTVIAHELAHQWFGNLVTIEWWNDLWLNEGFASYVEYLGADYAEPTWNLKDLMVLNDVYRVMAVDALASSHPLSTPASEINTPAQISELFDAISYSKGASVLRMLSSFLSEDVFKQGLASYLHTFAYQNTIYLNLWDHLQEAVNNRSIQLPTTVRDIMNRWTLQMGFPVITVDTSTGTLSQEHFLLDPDSNVTRPSEFNYVWIVPITSIRDGRQQQDYWLIDVRAQNDLFSTSGNEWVLLNLNVTGYYRVNYDEENWRKIQTQLQRDHSAIPVINRAQIINDAFNLASAHKVPVTLALNNTLFLIEERQYMPWEAALSSLSYFKLMFDRSEVYGPMKNYLKKQVTPLFIHFRNNTNNWREIPENLMDQYSEVNAISTACSNGVPECEEMVSGLFKQWMENPNNNPIHPNLRSTVYCNAIAQGGEEEWDFAWEQFRNATLVNEADKLRAALACSKELWILNRYLSYTLNPDLIRKQDATSTIISITNNVIGQGLVWDFVQSNWKKLFNDYGGGSFSFSNLIQAVTRRFSTEYELQQLEQFKKDNEETGFGSGTRALEQALEKTKANIKWVKENKEVVLQWFTENSK | Down | 1.743 | –
Cadherin-1 (protein, UniProt P12830 155-882, looked up) Cadherin-1: DWVIPPISCPENEKGPFPKNLVQIKSNKDKEGKVFYSITGQGADTPPVGVFIIERETGWLKVTEPLDRERIATYTLFSHAVSSNGNAVEDPMEILITVTDQNDNKPEFTQEVFKGSVMEGALPGTSVMEVTATDADDDVNTYNAAIAYTILSQDPELPDKNMFTINRNTGVISVVTTGLDRESFPTYTLVVQAADLQGEGLSTTATAVITVTDTNDNPPIFNPTTYKGQVPENEANVVITTLKVTDADAPNTPAWEAVYTILNDDGGQFVVTTNPVNNDGILKTAKGLDFEAKQQYILHVAVTNVVPFEVSLTTSTATVTVDVLDVNEAPIFVPPEKRVEVSEDFGVGQEITSYTAQEPDTFMEQKITYRIWRDTANWLEINPDTGAISTRAELDREDFEHVKNSTYTALIIATDNGSPVATGTGTLLLILSDVNDNAPIPEPRTIFFCERNPKPQVINIIDADLPPNTSPFTAELTHGASANWTIQYNDPTQESIILKPKMALEVGDYKINLKLMDNQNKDQVTTLEVSVCDCEGAAGVCRKAQPVEAGLQIPAILGILGGILALLILILLLLLFLRRRAVVKEPLLPPEDDTRDNVYYYDEEGGGEEDQDFDLSQLHRGLDARPEVTRNDVAPTLMSVPRYLPRPANPDEIGNFIDENLKAADTDPTAPPYDSLLVFDYEGSGSEAASLSSLNSSESDKDQDYDYLNEWGNRFKKLADMYGGGEDD | Down | 1.245 | –
Galectin-3-binding protein (protein, UniProt Q08380 19-585, looked up) Galectin-3-binding protein: VNDGDMRLADGGATNQGRVEIFYRGQWGTVCDNLWDLTDASVVCRALGFENATQALGRAAFGQGSGPIMLDEVQCTGTEASLADCKSLGWLKSNCRHERDAGVVCTNETRSTHTLDLSRELSEALGQIFDSQRGCDLSISVNVQGEDALGFCGHTVILTANLEAQALWKEPGSNVTMSVDAECVPMVRDLLRYFYSRRIDITLSSVKCFHKLASAYGARQLQGYCASLFAILLPQDPSFQMPLDLYAYAVATGDALLEKLCLQFLAWNFEALTQAEAWPSVPTDLLQLLLPRSDLAVPSELALLKAVDTWSWGERASHEEVEGLVEKIRFPMMLPEELFELQFNLSLYWSHEALFQKKTLQALEFHTVPFQLLARYKGLNLTEDTYKPRIYTSPTWSAFVTDSSWSARKSQLVYQSRRGPLVKYSSDYFQAPSDYRYYPYQSFQTPQHPSFLFQDKRVSWSLVYLPTIQSCWNYGFSCSSDELPVLGLTKSGGSDRTIAYENKALMLCEGLFVADVTDFEGWKAAIPSALDTNSSKSTSSFPCPAGHFNGFRTVIRPFYLTNSSGVD | Down | 1.095 | –
Peroxiredoxin-2 (protein, UniProt P32119 2-198, looked up) Peroxiredoxin-2: ASGNARIGKPAPDFKATAVVDGAFKEVKLSDYKGKYVVLFFYPLDFTFVCPTEIIAFSNRAEDFRKLGCEVLGVSVDSQFTHLAWINTPRKEGGLGPLNIPLLADVTRRLSEDYGVLKTDEGIAYRGLFIIDGKGVLRQITVNDLPVGRSVDEALRLVQAFQYTDEHGEVCPAGWKPGSDTIKPNVDDSKEYFSKHN | Down | 2.077 | –
Dermcidin (protein, UniProt P81605 20-110, looked up) Dermcidin: YDPEAASAPGSGNPCHEASAAQKENAGEDPGLARQAPKPRKQRSSLLEKGLDGAKKAVGGLGKLGKDAVEDLESVGKGAVHDVKDVLDSVL | – | – | Up
WAP four-disulfide core domain protein 2 (protein, UniProt Q14508 31-124, looked up) WAP four-disulfide core …: EKTGVCPELQADQNCTQECVSDSECADNLKCCSAGCATFCSLPNDKEGSCPQVNINFPQLGLCRDQCQVDSQCPGQMKCCRNGCGKVSCVTPNF | Down | 1.052 | –
Interleukin-18-binding protein (protein, UniProt O95998 31-194, looked up) Interleukin-18-binding protein: TPVSQTTTAATASVRSTKDPCPSQPPVFPAAKQCPALEVTWPEVEVPLNGTLSLSCVACSRFPNFSILYWLGNGSFIEHLPGRLWEGSTSRERGSTGTQLCKALVLEQLTPALHSTNFSCVLVDPEQVVQRHVVLAQLWAGLRATLPPTQEALPSSHSSPQQQG | Down | 9.54 | –
Colipase (protein, UniProt P04118 23-112, looked up) Colipase: GIIINLENGELCMNSAQCKSNCCQHSSALGLARCTSMASENSECSVKTLYGIYYKCPCERGLTCEGDKTIVGSITNTNFGICHDAGRSKQ | Down | 4.037 | –
